Assay results: publication doi:10.1101/2020.08.24.264556
Results are given in words; binding and its absence hold for the method and conditions named. In cells and extracts the contact can be indirect. A result given as binding can be weak or reduced; the word gives no strength. Where a sequence is shown, tags or fusion partners need not be part of it.

Biological target: TUD1-cLUC (rice)
Test: split reporter

B1: IDR1-nLUC (protein, UniProt Q0DJ33 1-380)
chain: MGSSCSRSHSLSEAETTKNAKSADIDRRILQETKAEQHIHKLLLLGAGESGKSTIFKQIKLLFQTGFDEAELRSYTSVIHANVYQTIKILYEGAKELSQVESDSSKYVISPDNQEIGEKLSDIDGRLDYPLLNKELVLDVKRLWQDPAIQETYLRGSILQLPDCAQYFMENLDRLAEAGYVPTKEDVLYARVRTNGVVQIQFSPVGENKRGGEVYRLYDVGGQRNERRKWIHLFEGVNAVIFCAAISEYDQMLFEDETKNRMMETKELFDWVLKQRCFEKTSFILFLNKFDIFEKKIQKVPLSVCEWFKDYQPIAPGKQEVEHAYEFVKKKFEELYFQSSKPDRVDRVFKIYRTTALDQKLVKKTFKLIDESMRRSREGT
In the case of B1, the binding is reported as “binds”.
